Here are results for five sequences from publication PMC9376089, “Reformation of the chondroitin sulfate glycocalyx enables progression of AR-independent prostate cancer”.

Construct, isoform or probe ends are uncertain for at least one entry. For some assays here: A negative result means that nothing was seen under these conditions. Where a protein sequence is shown, tags need not be part of it. For some assays here: At least one verdict was read from the data and is not stated in words by the source.

One data set concerns the target T1, AR-DBD (EMSA) (UniProt P10275).
T1 sequence (looked up, limits assumed): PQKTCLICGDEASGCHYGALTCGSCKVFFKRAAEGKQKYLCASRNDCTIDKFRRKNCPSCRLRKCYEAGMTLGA
The experiment in a line: EMSA. Particulars: 500 ng AR-DBD, 100 fmol probe, poly(dI-dC); EMSA: 10 mM Tris pH 7.5, 50 mM KCl, DTT (1 mM; 2.5 mM with 0.25% Tween 20), 1 ug poly(dI-dC), room temperature 20 min; recombinant protein; label: IR700 (position not given).

A further data set deals with T2, AR-DBD (biotinylated) (UniProt P10275).
T2 sequence (looked up): T1 sequence (looked up, limits assumed)
Put plainly: BLI. The settings on record: 10 uM DNA, BLI: 20 mM Tris pH 8, 150 mM NaCl, 5% glycerol, 2 mM DTT, 0.1 mM PMSF, temperature not stated, recombinant protein, residues 556-629.

Turning to “CTAGTTATGAGTACCTGCCGTACCCTTTC / TCGAGAAAGGGTACGGCAGGTACTCATAA [TMPRSS2-ARE (EMSA probe)]”, in the data set with AR-DBD (EMSA), the binding result is listed as “binds”.

As to “CTTTTCTAGAACACTGGGGCATCTCCA (double strand) [CHST11-ARE (BLI)]”, the binding result with AR-DBD (biotinylated) is recorded as “binds”.

Turning to “CTTTTCTATAATACTGGTGTATCTCCA (double strand) [CHST11-ARE-mutated]”, in the data set with AR-DBD (biotinylated), the binding result was “no binding”.

In the case of “TATTTGCTTTTCTCTGGGGCATCTCCA (double strand) [CHST11-ARE-deletion]”, in the data set with AR-DBD (biotinylated), the binding result is listed as “no binding”.

As for “TTAGCTAGCACTTGCTGTTCTGCAAGT (double strand) [PSA-ARE (KLK3-ARE, BLI)]”, the binding result with AR-DBD (biotinylated) (positive control) is “binds”.
